Results are given in words; binding and its absence hold for the method and conditions named. Binding seen in cells or lysates may run through a third protein.
Molecular target: T1, mitochondrial carrier homolog 2 (MTCH2) (mouse (endogenous in 3T3-L1)) (UniProt Q791V5)
T1 sequence: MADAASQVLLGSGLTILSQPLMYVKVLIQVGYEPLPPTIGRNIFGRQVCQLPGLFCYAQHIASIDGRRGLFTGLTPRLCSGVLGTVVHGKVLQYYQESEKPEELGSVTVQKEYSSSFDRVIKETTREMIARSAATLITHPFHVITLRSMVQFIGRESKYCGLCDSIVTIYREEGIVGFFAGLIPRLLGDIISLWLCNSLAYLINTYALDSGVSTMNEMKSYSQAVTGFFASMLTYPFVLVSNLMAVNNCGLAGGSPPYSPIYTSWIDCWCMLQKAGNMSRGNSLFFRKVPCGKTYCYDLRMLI
Assay: co-IP; 3T3L1 cell lysate; 1 mg cellular proteins with 1 µg primary antibodies at 4 °C overnight, Protein A/G magnetic beads 2 h at 4 °C, Western blot; which protein was precipitated is not told

Chains of the proteins cited; added tags and fusions are not shown.
UniProt P10417: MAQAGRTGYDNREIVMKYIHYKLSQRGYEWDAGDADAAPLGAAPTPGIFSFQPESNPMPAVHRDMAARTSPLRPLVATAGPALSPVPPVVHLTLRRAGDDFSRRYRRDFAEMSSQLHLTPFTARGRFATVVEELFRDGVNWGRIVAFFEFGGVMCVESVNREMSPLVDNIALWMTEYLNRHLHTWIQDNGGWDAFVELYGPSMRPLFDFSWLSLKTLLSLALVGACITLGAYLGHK

binding: no binding
Substance: Bcl-2 (from UniProt P10417 1-236)

Reference: PMC12061245
